Test results: PubChem BioAssay AID248 (DTP/NCI, 2004)
The list does not hold the whole screen: it is rich in T/C values a quarter to a half above the control, in often repeated tests (any T/C) and in doses without a T/C. Further doses and runs are listed elsewhere. T/C gives the treated animals as a percentage of the vehicle group. Some entries give survivors of the animals treated and no T/C: the source files T/C as zero there, which appears to mark a toxic dose or a test without result, not a measured value. Some doses without a T/C left all or most animals alive at the check, yet need not have been tolerated: the source hardly ever lists a survival T/C far under the control, and the zero likely stands for such cases as well. Survivors were counted at the toxicity check, usually on the fifth day, unless a day is given; later deaths do not show. Schedule codes are those of the source, read here as Q, the interval in days (D) or hours (H), X, the number of doses. Some doses were run more than once; the results are listed from low to high. Some schedules carry Z or #; the key to these is not given. Some molecules as drawn cover several salts, stereoisomers or complexes of the source; a dose is that of the sample tested. Signs of the kind (2×) say how often a value occurs here. Where survival is the endpoint, the PubChem record calls one and a half times the control and up active, and a quarter to a half above the control has no call in these data; cut-offs in other NCI protocols can differ.

Tested on: L1210 leukemia ip in BDF1 mice, survival T/C
Assay: NCI In Vivo Anticancer Drug Screen. Data for tumor model L1210 Leukemia (intraperitoneal) in B6D2F1 (BDF1) mice
Settings: T/C endpoint: mean survival time, higher T/C = longer survival
[1] = dose: 400.0 mg/kg/injection, schedule: Q04DX002 (ip), vehicle: saline
[2] = dose: 100.0 mg/kg/injection, schedule: Q04DX003 (ip), vehicle: Klucel (hydroxypropylcellulose) (HPC)
[3] = dose: 200.0 mg/kg/injection, schedule: Q04DX003 (ip), vehicle: Klucel (hydroxypropylcellulose) (HPC)
[4] = dose: 400.0 mg/kg/injection, schedule: Q04DX003 (ip), vehicle: Klucel (hydroxypropylcellulose) (HPC)
[5] = dose: 300.0 mg/kg/injection, schedule: Q01DX001 (ip), vehicle: saline
[6] = dose: 400.0 mg/kg/injection, schedule: Q01DX009 (ip), vehicle: Klucel (hydroxypropylcellulose) (HPC)
[7] = dose: 200.0 mg/kg/injection, schedule: Q04DX002 (ip), vehicle: saline with Tween-80
[8] = dose: 400.0 mg/kg/injection, schedule: Q01DX001 (ip), vehicle: saline with Tween-80
[9] = dose: 400.0 mg/kg/injection, schedule: Q04DX003 (ip), vehicle: saline with Tween-80

Q: Which results are given for CCCCOCc1cc(CN2CCN(C)CC2)c(O)c2ncccc12?
A: survivor count (dose: 200.0 mg/kg/injection, schedule: Q04DX002 (ip), vehicle: saline): 2 of 3; survivor count [1]: 0 of 3

Q: CC(=O)Oc1c(C)cc([N+](=O)[O-])cc1[N+](=O)[O-] was tested. Which survivor count [2] did it give?
A: 1 of 6 and 6 of 6

Q: And the survivor count [3]?
A: 0 of 6

Q: And the survivor count [4]?
A: 0 of 6

Q: For CCCCCCC(C)NCCOC(=O)c1ccc(N)cc1 (stereo unspecified), which survivor count (dose: 150.0 mg/kg/injection, schedule: Q01DX001 (ip), vehicle: saline) is on record?
A: 0 of 6

Q: What about the survivor count (dose: 150.0 mg/kg/injection, schedule: Q04DX003 (ip), vehicle: other) of the same compound?
A: 0 of 6

Q: What about the survivor count (dose: 300.0 mg/kg/injection, schedule: Q01DX001 (ip), vehicle: other) of the same compound?
A: 0 of 6 (2×)

Q: What about the survivor count [5] of the same compound?
A: 1 of 6 and 2 of 6

Q: Which results are given for CCOC(O)C(F)(F)F (stereo unspecified)?
A: survivor count (dose: 400.0 mg/kg/injection, schedule: Q01DX009 (ip), vehicle: acetone): 3 of 6; survivor count (dose: 400.0 mg/kg/injection, schedule: Q01DX015 (ip), vehicle: saline): 3 of 6

Q: Which results are given for O=C(/C=C/c1ccccc1)NN1CCCCC1?
A: survivor count [6]: 0 of 6; survivor count [4]: 1 of 6

Q: Which T/C (dose: 100.0 mg/kg/injection, schedule: Q04DX002 (ip), vehicle: saline with Tween-80) does the source give for COc1ccc(Cl)cc1NC(=O)Oc1ccc2ccccc2c1 here?
A: 93, 102, 103, 104 % of control

Q: What about the T/C [7] of the same compound?
A: 95, 97, 100 % of control

Q: What about the survivor count [7] of the same compound?
A: 3 of 3

Q: What about the T/C (dose: 400.0 mg/kg/injection, schedule: Q04DX002 (ip), vehicle: saline with Tween-80) of the same compound?
A: 87, 93, 97, 100 % of control

Q: Which survivor count [6] does the source give for CCCCOC(=O)Oc1ccc(C(=O)Oc2ccc(OCC)cc2)cc1 here?
A: 6 of 6

Q: For O=C1CCCC(=O)NNC(=O)Nc2ccc(cc2)-c2ccc(cc2)NC(=O)NN1, which survivor count (dose: 200.0 mg/kg/injection, schedule: Q01DX001 (ip), vehicle: saline) is on record?
A: 4 of 4

Q: How did the survivor count [1] turn out when COC(=O)NS(=O)(=O)OC was run?
A: 1 of 3

Q: With Cc1cc(N(CCOS(C)(=O)=O)CCOS(C)(=O)=O)ccc1C=Nc1ccc(-c2csc(COc3ccccc3)n2)cc1 as the compound, how does the T/C (dose: 66.0 mg/kg/injection, schedule: Q04DX003 (ip), vehicle: Klucel (hydroxypropylcellulose) (HPC)) read?
A: 135 % of control

Q: And the T/C [2]?
A: 127 and 136 % of control

Q: What about the T/C (dose: 150.0 mg/kg/injection, schedule: Q04DX003 (ip), vehicle: Klucel (hydroxypropylcellulose) (HPC)) of the same compound?
A: 148 % of control

Q: And the T/C (dose: 225.0 mg/kg/injection, schedule: Q04DX003 (ip), vehicle: Klucel (hydroxypropylcellulose) (HPC))?
A: 139 % of control

Q: What about the survivor count [4] of the same compound?
A: 2 of 6

Q: Which T/C (dose: 6.0 mg/kg/injection, schedule: Q04DX003 (ip), vehicle: Klucel (hydroxypropylcellulose) (HPC)) does the source give for O=P(NC12CC3CC(CC(C3)C1)C2)(N1CC1)N1CC1 here?
A: 125 % of control

Q: And the T/C (dose: 9.0 mg/kg/injection, schedule: Q04DX003 (ip), vehicle: Klucel (hydroxypropylcellulose) (HPC))?
A: 138 % of control

Q: And the T/C (dose: 12.0 mg/kg/injection, schedule: Q01DX001 (ip), vehicle: Klucel (hydroxypropylcellulose) (HPC))?
A: 128 % of control

Q: What about the T/C (dose: 18.0 mg/kg/injection, schedule: Q01DX001 (ip), vehicle: Klucel (hydroxypropylcellulose) (HPC)) of the same compound?
A: 148 % of control

Q: What about the T/C (dose: 40.0 mg/kg/injection, schedule: Q01DX001 (ip), vehicle: Klucel (hydroxypropylcellulose) (HPC)) of the same compound?
A: 146 % of control

Q: And the survivor count (dose: 40.0 mg/kg/injection, schedule: Q04DX003 (ip), vehicle: Klucel (hydroxypropylcellulose) (HPC))?
A: 6 of 6

Q: And the survivor count (dose: 80.0 mg/kg/injection, schedule: Q04DX003 (ip), vehicle: Klucel (hydroxypropylcellulose) (HPC))?
A: 5 of 6

Q: And the survivor count [2]?
A: 6 of 6

Q: What about the survivor count [3] of the same compound?
A: 4 of 6

Q: What about the survivor count [4] of the same compound?
A: 5 of 6

Q: For O=C(O)CCCCCN1C(=O)c2cccc([N+](=O)[O-])c2C1=O, which survivor count [8] is on record?
A: 6 of 6

Q: Which survivor count (dose: 200.0 mg/kg/injection, schedule: Q01DX009 (ip), vehicle: saline) does the source give for O=S(=O)(Oc1ccc(Cl)cc1)c1ccc(Cl)cc1 here?
A: 6 of 6

Q: How did the survivor count [9] turn out when ClC1CCC[N-]C1.ClC1CCC[N-]C1.[Cl][Pt+2][Cl] (stereo unspecified) was run?
A: 5 of 6

Q: c1ccc2c(c1)Cc1ccccc1[As]2c1cccc2ccccc12 was tested. Which survivor count (dose: 222.0 mg/kg/injection, schedule: Q01DX Z (ip), vehicle: methylcellulose (MC)) did it give?
A: 6 of 6

Q: What about the survivor count (dose: 333.0 mg/kg/injection, schedule: Q01DX Z (ip), vehicle: methylcellulose (MC)) of the same compound?
A: 6 of 6

Q: And the survivor count (dose: 500.0 mg/kg/injection, schedule: Q01DX Z (ip), vehicle: methylcellulose (MC))?
A: 6 of 6

Q: How did the survivor count (dose: 400.0 mg/kg/injection, schedule: Q01DX009 (ip), vehicle: saline) turn out when C#CCOP(=O)(OCC)OCC was run?
A: 2 of 6

Q: For [N-]=[N+]=C1C(c2ccccc2)=NC(c2nccc3ccccc23)=C1[N+](=O)[O-], which survivor count (dose: 40.0 mg/kg/injection, schedule: Q01DX001 (ip), vehicle: saline) is on record?
A: 3 of 6

Q: What about the survivor count (dose: 80.0 mg/kg/injection, schedule: Q01DX001 (ip), vehicle: saline) of the same compound?
A: 1 of 6

Q: Which survivor count (dose: 100.0 mg/kg/injection, schedule: Q01DX009 (ip), vehicle: Klucel (hydroxypropylcellulose) (HPC)) does the source give for CC1(C)N=C(N)N=C(N)N1c1ccccc1I here?
A: 2 of 6

Q: What about the survivor count (dose: 200.0 mg/kg/injection, schedule: Q01DX009 (ip), vehicle: Klucel (hydroxypropylcellulose) (HPC)) of the same compound?
A: 0 of 6

Q: And the survivor count [6]?
A: 0 of 6

Q: How did the survivor count (dose: 400.0 mg/kg/injection, schedule: Q01DX001 (ip), vehicle: saline) turn out when CC(CC(=O)c1ccc(F)cc1)N1CCOCC1 (stereo unspecified) was run?
A: 3 of 4

Q: CCCCCCCCCCCCCCCCC(=O)OCC was tested. Which survivor count (dose: 150.0 mg/kg/injection, schedule: Q01DX001 (ip), vehicle: carboxymethylcellulose (CMC)) did it give?
A: 0 of 6

Q: And the survivor count (dose: 300.0 mg/kg/injection, schedule: Q01DX001 (ip), vehicle: carboxymethylcellulose (CMC))?
A: 0 of 6

Q: NC(=O)CSSCC(N)=O was tested. Which survivor count (dose: 400.0 mg/kg/injection, schedule: Q04DX003 (ip), vehicle: saline) did it give?
A: 0 of 6

Q: For O=C(COc1ccccc1[N+](=O)[O-])Nc1ccccc1C(=O)O, which survivor count [8] is on record?
A: 1 of 6

Q: Which results are given for CCCOC(=O)c1ccc(OC(=O)NC)cc1?
A: survivor count (dose: 400.0 mg/kg/injection, schedule: Q01DX009 (ip), vehicle: carboxymethylcellulose (CMC)): 1 of 6 and 3 of 3; survivor count (dose: 400.0 mg/kg/injection, schedule: Q04DX003 (ip), vehicle: carboxymethylcellulose (CMC)): 3 of 6

Q: CCOc1ccc(C(=O)Nc2ccc(C3=NCCN3)cc2)cc1C(=O)Nc1ccc(C2=NCCN2)cc1 was tested. Which T/C (dose: 120.0 mg/kg/injection, schedule: Q01DX Z (ip), vehicle: carboxymethylcellulose (CMC)) did it give?
A: 148 % of control

Q: What about the T/C (dose: 240.0 mg/kg/injection, schedule: Q01DX Z (ip), vehicle: carboxymethylcellulose (CMC)) of the same compound?
A: 136 % of control

Q: What about the survivor count (dose: 480.0 mg/kg/injection, schedule: Q01DX Z (ip), vehicle: carboxymethylcellulose (CMC)) of the same compound?
A: 4 of 6

Q: How did the survivor count (dose: 100.0 mg/kg/injection, schedule: Q01DX009 (ip), vehicle: saline with Tween-80) turn out when c1ccc(C2OC3(CCCCC3)C[N+]23CCCC3)cc1 (stereo unspecified) was run?
A: 3 of 6

Q: And the survivor count (dose: 200.0 mg/kg/injection, schedule: Q04DX003 (ip), vehicle: saline with Tween-80)?
A: 0 of 6

Q: And the survivor count [9]?
A: 0 of 6

Q: How did the survivor count (dose: 20.0 mg/kg/injection, schedule: Q01DX009 (ip), vehicle: saline) turn out when O=C(C=C(C(F)(F)Cl)C(F)(F)Cl)c1cccs1 was run?
A: 0 of 6

Q: How did the survivor count (dose: 200.0 mg/kg/injection, schedule: Q01DX009 (ip), vehicle: saline with Tween-80) turn out when Cc1nc(Cl)c(C(N)=O)nc1C was run?
A: 3 of 6

Q: What about the survivor count (dose: 400.0 mg/kg/injection, schedule: Q01DX009 (ip), vehicle: saline with Tween-80) of the same compound?
A: 4 of 6

Q: Which results are given for CN1C2CCC1CC(=C(C#N)C(N)=O)C2?
A: survivor count (dose: 12.5 mg/kg/injection, schedule: Q01DX009 (ip), vehicle: Klucel (hydroxypropylcellulose) (HPC)): 0 of 6; survivor count (dose: 25.0 mg/kg/injection, schedule: Q04DX003 (ip), vehicle: Klucel (hydroxypropylcellulose) (HPC)): 6 of 6; survivor count (dose: 50.0 mg/kg/injection, schedule: Q04DX003 (ip), vehicle: Klucel (hydroxypropylcellulose) (HPC)): 2 of 6; survivor count [2]: 0 of 6; survivor count [3]: 0 of 6; survivor count [4]: 0 of 6

Q: For CNC1C(O)C(OC)OC2COC(c3ccccc3)OC21 (stereo unspecified), which survivor count [9] is on record?
A: 4 of 6

Q: How did the survivor count [5] turn out when C[n+]1cccc(C#N)c1 was run?
A: 3 of 6
